Laboratory results: paper doi:10.1101/277269
No constants are given. Whether binding was seen depends on the method and setting. Binding seen in cells or lysates may run through a third protein. For some assays here: Sequences can lack the tags named with a protein.

Columns and labels:
[1] = target: IAP1-Nluc (IAP1 fused to the N-terminal domain of luciferase) (Arabidopsis thaliana); assay: split reporter
[2] = target: GFP-IAP1 (Arabidopsis thaliana); assay: FRET or BRET

binding [1]	binding [2]	Binder
no binding		Cluc-IAN9 (N-terminal fusion of IAN9 to the C-terminal domain of luciferase) (protein, UniProt F4HT21 1-342) MSLLDMGGDMMEDDWEFASSSNPKRTLVLVGRTGNGKSATGNSILGRKAFRSRARTVGVTSTCESQRVVQEDGDIINVVDTPGLFDLSTAADFIGKEIVRCISLAEDGIHAILLVFSVRRLAEEEQTVLSFLQALFGSKIADYMIVVFTGGDELEENEETLEEYLADYCPEFLKEILGICDNRLVLFNNKTTDKVKKAEQVQKLLSLVESVVKQNNGKPYSDELFHELQEEAIKLRDQKKEVELLQGYSNNEIDEFKKQIDMSYDRQLSRITEMVETKLRDTAKRLEQQLGEEQAARLEAEKRANEVQKRSSDEIKKLRENLERAEKETKELQKKLGKCINL
	no binding	RFP-IAN9 (protein, UniProt F4HT21 1-342) MSLLDMGGDMMEDDWEFASSSNPKRTLVLVGRTGNGKSATGNSILGRKAFRSRARTVGVTSTCESQRVVQEDGDIINVVDTPGLFDLSTAADFIGKEIVRCISLAEDGIHAILLVFSVRRLAEEEQTVLSFLQALFGSKIADYMIVVFTGGDELEENEETLEEYLADYCPEFLKEILGICDNRLVLFNNKTTDKVKKAEQVQKLLSLVESVVKQNNGKPYSDELFHELQEEAIKLRDQKKEVELLQGYSNNEIDEFKKQIDMSYDRQLSRITEMVETKLRDTAKRLEQQLGEEQAARLEAEKRANEVQKRSSDEIKKLRENLERAEKETKELQKKLGKCINL
